These are yes or no findings as the source states them, for the method shown. In cells and extracts the contact can be indirect. Here binding means that the protein was enriched with, or labelled near, the bait; the list need not be complete.
Molecular target: Cbl (Casitas B-lineage lymphoma proto-oncogene) (human (endogenous in HeLa)) (UniProt P22681)
Test: affinity purification with mass spectrometry

B1: Flotillin-2 (FLOT2) (protein, UniProt Q14254 1-428)
chain: MGNCHTVGPNEALVVSGGCCGSDYKQYVFGGWAWAWWCISDTQRISLEIMTLQPRCEDVETAEGVALTVTGVAQVKIMTEKELLAVACEQFLGKNVQDIKNVVLQTLEGHLRSILGTLTVEQIYQDRDQFAKLVREVAAPDVGRMGIEILSFTIKDVYDKVDYLSSLGKTQTAVVQRDADIGVAEAERDAGIREAECKKEMLDVKFMADTKIADSKRAFELQKSAFSEEVNIKTAEAQLAYELQGAREQQKIRQEEIEIEVVQRKKQIAVEAQEILRTDKELIATVRRPAEAEAHRIQQIAEGEKVKQVLLAQAEAEKIRKIGEAEAAVIEAMGKAEAERMKLKAEAYQKYGDAAKMALVLEALPQIAAKIAAPLTKVDEIVVLSGDNSKVTSEVNRLLAELPASVHALTGVDLSKIPLIKKATGVQV
- binding: binds

From article doi:10.1101/2022.03.11.483779
